In this experiment the target is GST-Cpne4 (UniProt Q8BLR2). Nature of the experiment: pull-down.

Sequences of proteins named here, by UniProt entry; tags and fusion partners are left off.
UniProt Q8BLR2, whole entry: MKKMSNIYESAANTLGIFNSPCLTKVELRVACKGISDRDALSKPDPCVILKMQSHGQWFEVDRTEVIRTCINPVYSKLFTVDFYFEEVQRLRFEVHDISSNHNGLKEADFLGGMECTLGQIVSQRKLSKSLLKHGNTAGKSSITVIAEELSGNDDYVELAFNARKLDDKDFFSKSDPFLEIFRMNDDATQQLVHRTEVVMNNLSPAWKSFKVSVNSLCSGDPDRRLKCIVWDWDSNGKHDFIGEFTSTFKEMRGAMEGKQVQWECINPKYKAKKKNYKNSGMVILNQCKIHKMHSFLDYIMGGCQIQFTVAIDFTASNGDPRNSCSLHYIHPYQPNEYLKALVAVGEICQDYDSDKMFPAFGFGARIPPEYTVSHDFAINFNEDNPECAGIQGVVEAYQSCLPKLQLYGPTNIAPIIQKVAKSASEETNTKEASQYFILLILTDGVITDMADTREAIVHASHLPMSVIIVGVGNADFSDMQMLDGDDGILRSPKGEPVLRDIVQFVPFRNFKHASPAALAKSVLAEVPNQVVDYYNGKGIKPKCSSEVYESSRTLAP
UniProt P14873, whole entry: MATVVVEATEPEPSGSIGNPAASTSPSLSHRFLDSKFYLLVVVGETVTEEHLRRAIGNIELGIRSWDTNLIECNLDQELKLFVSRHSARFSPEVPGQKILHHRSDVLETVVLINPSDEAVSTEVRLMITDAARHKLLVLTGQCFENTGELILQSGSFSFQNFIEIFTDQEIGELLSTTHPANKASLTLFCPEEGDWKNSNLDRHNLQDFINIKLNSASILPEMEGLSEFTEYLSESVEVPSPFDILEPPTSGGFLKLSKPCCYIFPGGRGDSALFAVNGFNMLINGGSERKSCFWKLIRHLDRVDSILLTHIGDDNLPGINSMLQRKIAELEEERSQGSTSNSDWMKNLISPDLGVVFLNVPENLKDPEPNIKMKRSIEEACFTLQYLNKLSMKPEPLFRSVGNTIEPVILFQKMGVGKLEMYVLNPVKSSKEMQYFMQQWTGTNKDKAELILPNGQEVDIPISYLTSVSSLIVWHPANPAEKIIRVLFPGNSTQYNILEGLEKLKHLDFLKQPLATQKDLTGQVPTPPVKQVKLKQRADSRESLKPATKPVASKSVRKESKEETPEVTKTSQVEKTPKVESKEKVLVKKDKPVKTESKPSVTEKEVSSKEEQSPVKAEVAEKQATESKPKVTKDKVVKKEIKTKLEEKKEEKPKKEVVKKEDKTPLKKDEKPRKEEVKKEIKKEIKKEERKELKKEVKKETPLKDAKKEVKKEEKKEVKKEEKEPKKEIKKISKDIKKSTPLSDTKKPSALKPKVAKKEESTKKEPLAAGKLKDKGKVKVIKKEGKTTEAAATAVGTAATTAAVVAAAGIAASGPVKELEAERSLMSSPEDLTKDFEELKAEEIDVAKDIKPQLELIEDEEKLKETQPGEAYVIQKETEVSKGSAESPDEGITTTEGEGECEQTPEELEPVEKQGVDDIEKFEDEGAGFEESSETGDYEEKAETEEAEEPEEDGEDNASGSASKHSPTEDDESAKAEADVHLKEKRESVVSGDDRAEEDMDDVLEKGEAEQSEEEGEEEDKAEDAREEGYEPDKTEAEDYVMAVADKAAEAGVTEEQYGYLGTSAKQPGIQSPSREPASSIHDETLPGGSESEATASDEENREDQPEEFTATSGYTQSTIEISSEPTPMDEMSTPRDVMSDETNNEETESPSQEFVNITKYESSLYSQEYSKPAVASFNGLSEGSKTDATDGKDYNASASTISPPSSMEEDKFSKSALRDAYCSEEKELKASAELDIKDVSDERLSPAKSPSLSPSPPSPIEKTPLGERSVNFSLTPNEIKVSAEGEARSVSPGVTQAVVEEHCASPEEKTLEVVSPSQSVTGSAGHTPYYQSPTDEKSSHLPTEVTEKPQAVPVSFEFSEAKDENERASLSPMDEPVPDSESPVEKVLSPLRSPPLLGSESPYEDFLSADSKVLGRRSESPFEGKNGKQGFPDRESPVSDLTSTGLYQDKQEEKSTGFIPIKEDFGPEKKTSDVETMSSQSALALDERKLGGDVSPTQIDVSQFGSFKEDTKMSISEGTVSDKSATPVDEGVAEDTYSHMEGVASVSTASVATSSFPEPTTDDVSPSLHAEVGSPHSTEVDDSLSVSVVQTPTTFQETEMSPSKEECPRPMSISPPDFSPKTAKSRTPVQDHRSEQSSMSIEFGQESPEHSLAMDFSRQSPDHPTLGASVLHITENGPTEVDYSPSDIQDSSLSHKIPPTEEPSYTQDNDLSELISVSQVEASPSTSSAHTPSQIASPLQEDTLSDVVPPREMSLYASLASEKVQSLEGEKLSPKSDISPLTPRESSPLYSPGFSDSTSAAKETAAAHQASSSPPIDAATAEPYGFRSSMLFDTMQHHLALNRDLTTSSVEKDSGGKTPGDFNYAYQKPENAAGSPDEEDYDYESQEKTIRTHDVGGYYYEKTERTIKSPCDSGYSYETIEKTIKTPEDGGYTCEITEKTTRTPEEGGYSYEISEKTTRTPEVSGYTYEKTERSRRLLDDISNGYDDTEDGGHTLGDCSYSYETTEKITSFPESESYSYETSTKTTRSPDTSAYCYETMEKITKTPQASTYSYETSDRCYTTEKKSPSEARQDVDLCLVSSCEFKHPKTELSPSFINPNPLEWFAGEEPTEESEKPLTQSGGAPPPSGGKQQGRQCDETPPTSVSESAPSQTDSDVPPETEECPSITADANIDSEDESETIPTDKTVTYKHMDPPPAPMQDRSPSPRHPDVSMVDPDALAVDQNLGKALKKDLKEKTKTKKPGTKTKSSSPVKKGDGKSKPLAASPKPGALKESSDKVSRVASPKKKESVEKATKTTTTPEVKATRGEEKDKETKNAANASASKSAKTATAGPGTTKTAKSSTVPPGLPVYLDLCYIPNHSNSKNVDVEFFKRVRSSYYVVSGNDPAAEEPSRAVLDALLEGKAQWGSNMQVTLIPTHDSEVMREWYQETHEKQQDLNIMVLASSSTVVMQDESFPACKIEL
UniProt Q9JIS5, whole entry: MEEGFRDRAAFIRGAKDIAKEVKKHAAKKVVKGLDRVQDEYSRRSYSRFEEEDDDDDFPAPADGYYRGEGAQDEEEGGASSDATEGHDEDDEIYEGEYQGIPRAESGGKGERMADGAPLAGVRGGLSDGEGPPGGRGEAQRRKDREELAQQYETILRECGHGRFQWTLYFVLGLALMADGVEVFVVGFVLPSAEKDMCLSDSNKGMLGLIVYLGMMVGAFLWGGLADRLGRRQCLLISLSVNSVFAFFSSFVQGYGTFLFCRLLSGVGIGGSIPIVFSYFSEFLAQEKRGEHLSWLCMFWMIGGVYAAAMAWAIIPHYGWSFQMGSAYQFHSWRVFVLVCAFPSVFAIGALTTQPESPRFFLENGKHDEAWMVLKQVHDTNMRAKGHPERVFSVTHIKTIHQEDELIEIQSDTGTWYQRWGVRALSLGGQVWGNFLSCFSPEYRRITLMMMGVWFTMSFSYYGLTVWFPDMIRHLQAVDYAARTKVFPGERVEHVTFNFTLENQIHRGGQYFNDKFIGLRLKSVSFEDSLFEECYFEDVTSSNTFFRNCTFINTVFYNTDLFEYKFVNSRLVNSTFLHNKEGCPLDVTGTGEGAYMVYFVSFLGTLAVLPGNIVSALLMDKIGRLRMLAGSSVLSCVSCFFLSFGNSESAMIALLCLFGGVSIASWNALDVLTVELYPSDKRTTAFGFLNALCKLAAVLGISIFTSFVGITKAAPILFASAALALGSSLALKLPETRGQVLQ
UniProt P61264, whole entry: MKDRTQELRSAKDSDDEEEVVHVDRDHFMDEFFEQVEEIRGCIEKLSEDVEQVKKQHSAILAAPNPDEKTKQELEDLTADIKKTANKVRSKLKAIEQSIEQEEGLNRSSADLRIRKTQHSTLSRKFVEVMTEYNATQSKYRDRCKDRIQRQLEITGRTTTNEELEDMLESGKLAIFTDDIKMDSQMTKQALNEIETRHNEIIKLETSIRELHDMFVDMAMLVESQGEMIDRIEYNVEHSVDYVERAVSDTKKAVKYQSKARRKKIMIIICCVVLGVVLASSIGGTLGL

These are yes or no findings as the source states them, for the method shown. Binding seen in cells or lysates may run through a third protein. Some results given as binding are weak or reduced against the parent protein; the word gives no strength.

Turning to Map1b (from UniProt P14873 1-2464), the binding entry is “binds”. As for SV2a (from UniProt Q9JIS5 1-742), the binding result is recorded as “binds”. “Stx1b (Syntaxin 1b) (from UniProt P61264 1-288)”: the binding entry is “binds”.
